These are yes or no findings as the source states them, for the method shown.
Target: T1, core TOM complex (monomeric unit: Tom40, Tom22, Tom5, Tom6, Tom7) (S. cerevisiae) (UniProt P23644+P49334+P80967+P33448+P53507)
T1 sequence 1: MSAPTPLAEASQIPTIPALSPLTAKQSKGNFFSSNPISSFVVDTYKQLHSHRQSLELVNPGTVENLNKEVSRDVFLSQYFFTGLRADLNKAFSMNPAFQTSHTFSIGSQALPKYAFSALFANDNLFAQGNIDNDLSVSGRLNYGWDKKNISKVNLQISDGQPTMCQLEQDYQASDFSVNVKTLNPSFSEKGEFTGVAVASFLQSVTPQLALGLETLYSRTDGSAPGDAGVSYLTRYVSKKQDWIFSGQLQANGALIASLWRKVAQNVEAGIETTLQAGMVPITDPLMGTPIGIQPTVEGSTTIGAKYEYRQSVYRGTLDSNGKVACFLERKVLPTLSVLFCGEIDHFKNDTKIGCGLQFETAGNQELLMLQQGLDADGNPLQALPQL
T1 sequence 2: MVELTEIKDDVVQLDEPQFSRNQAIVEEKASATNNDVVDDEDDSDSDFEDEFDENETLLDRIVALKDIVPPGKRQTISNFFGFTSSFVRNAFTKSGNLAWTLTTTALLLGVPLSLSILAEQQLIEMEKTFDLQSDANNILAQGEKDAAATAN
T1 sequence 3: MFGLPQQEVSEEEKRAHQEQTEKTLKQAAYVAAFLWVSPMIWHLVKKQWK
T1 sequence 4: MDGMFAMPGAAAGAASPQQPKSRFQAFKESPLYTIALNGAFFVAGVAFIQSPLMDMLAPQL
T1 sequence 5: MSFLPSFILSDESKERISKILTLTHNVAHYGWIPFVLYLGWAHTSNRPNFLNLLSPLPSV
Assay: tandem affinity purification

The chains behind the UniProt entries cited, without tags or fusion partners.
UniProt P35180, whole entry: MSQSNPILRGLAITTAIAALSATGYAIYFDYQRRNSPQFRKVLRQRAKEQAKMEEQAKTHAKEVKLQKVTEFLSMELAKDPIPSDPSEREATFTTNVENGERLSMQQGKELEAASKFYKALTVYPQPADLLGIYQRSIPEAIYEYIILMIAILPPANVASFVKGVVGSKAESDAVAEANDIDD

binding: no binding
Substance: Tom20 (from UniProt P35180 1-183)
